Laboratory results taken from article PMC11241864.
Results are given in words; binding and its absence hold for the method and conditions named. Binding seen in cells or lysates may run through a third protein. Some results given as binding are weak or reduced against the parent protein; the word gives no strength.

By UniProt entry, the sequences of proteins in these tests, tags left out.
UniProt Q61188: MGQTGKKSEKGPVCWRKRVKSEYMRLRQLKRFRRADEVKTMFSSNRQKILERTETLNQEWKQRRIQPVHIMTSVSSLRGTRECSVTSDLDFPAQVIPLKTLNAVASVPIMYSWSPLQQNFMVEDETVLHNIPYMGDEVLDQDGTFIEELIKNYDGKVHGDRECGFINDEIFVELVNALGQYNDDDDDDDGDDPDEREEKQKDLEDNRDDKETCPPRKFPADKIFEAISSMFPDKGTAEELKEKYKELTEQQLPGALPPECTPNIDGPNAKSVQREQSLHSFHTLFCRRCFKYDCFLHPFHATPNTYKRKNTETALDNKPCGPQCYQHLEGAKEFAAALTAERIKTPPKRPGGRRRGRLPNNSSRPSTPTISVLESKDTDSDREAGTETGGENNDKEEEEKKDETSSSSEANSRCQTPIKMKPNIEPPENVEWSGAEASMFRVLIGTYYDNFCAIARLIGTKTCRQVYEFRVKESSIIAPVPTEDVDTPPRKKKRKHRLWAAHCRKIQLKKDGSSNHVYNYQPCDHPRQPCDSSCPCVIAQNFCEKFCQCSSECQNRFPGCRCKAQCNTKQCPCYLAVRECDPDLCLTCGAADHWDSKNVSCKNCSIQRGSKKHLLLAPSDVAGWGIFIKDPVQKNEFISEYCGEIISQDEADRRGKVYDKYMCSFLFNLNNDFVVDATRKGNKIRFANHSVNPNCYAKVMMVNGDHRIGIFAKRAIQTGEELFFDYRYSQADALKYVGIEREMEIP

Target: T1, bromodomain protein 7 (BRD7) (mouse (endogenous in GC-1spg)) (UniProt O88665)
T1 sequence: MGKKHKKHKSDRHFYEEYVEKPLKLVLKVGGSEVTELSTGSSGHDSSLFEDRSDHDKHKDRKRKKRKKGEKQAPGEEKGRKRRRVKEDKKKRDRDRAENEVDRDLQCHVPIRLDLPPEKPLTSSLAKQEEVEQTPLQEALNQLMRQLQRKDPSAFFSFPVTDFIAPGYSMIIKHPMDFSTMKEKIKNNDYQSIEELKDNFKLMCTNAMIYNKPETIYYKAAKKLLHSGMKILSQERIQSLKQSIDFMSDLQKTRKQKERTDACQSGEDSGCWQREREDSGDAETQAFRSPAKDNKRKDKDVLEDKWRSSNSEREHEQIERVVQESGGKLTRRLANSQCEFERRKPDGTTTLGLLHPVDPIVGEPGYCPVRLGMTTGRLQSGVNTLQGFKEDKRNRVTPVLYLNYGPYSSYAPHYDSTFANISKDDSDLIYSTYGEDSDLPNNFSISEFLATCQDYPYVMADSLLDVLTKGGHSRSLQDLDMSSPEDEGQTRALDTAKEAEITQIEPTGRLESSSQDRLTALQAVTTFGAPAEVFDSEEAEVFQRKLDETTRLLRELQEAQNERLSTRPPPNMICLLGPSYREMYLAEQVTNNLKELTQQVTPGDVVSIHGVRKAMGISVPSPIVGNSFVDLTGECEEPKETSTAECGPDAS
Test: co-IP; 1 mg GC-1spg cell lysate (IP lysis buffer) incubated with anti-BRD7, anti-DNMT3a or normal IgG at 4 °C overnight; Protein A/G magnetic beads; eluates analysed by Western blotting

Substance: EZH2 (from UniProt Q61188 1-746)
- binding: binds
